Among the data in article PMC8070438 are binding values, retold here.

By UniProt entry, the sequences of proteins in these tests, tags left out.
UniProt O08788: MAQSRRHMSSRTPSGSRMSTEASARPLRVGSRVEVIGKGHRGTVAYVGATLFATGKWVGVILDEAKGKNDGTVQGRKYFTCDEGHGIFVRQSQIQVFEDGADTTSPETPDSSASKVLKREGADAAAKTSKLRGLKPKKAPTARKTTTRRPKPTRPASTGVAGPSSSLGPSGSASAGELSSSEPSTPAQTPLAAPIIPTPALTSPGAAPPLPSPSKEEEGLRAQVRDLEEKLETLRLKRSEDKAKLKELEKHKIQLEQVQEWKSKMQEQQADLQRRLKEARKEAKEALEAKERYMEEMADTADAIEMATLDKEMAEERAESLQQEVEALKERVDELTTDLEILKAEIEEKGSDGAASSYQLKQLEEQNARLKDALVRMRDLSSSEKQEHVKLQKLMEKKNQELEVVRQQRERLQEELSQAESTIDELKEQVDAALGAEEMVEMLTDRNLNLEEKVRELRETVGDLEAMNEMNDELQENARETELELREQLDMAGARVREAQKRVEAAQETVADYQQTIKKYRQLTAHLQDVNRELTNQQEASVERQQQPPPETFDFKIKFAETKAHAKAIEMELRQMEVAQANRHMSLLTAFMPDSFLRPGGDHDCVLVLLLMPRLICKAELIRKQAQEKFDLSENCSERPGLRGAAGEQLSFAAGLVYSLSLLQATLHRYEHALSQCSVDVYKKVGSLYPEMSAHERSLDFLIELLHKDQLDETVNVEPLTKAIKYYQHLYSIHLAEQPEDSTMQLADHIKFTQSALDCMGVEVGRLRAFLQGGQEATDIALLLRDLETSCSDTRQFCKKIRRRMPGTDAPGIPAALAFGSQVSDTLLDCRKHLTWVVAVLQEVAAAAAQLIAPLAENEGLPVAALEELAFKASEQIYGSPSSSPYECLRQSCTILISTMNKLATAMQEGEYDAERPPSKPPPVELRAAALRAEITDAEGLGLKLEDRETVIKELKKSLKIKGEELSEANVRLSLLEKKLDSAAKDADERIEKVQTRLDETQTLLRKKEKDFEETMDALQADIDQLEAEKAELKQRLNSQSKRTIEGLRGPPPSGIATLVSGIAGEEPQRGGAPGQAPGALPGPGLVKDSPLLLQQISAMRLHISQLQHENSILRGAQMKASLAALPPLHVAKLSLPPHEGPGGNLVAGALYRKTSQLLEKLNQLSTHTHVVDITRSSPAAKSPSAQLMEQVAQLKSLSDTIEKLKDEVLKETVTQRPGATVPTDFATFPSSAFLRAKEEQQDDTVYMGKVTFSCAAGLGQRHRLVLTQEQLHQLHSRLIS
UniProt Q921F2: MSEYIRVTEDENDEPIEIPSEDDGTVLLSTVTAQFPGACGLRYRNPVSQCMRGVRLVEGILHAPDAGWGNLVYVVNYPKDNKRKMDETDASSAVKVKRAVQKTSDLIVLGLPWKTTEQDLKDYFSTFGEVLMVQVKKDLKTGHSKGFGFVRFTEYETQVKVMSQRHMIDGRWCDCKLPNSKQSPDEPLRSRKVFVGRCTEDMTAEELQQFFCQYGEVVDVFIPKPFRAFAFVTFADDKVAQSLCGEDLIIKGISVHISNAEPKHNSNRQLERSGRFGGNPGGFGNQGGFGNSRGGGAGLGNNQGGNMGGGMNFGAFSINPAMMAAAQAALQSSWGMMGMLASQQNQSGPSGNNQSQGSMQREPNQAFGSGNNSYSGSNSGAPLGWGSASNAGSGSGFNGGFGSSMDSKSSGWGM

The experiment has as its target Dctn1 (dynactin subunit 1), endogenous mouse protein (mouse (endogenous in E16.5 brain)) (UniProt O08788). Briefly: co-IP; endogenous proteins in E16.5 mouse whole brain lysate; immunoprecipitated with goat anti-DCTN1 (control IgG beside it), 4 °C 17 h, Protein G magnetic beads; 50 mM Tris-HCl pH 7.4, 150 mM NaCl, 1 mM EDTA, 0.5% NP-40, 0.5% sodium deoxycholate; blot with anti-TDP-43.

Results are given in words; binding and its absence hold for the method and conditions named. Binding seen in cells or lysates may run through a third protein. Some results given as binding are weak or reduced against the parent protein; the word gives no strength.

In the case of “Tdp-43, endogenous mouse protein (from UniProt Q921F2 1-414)”, the binding entry is “binds”.
